Measurements reported in PMC3454389, “Mining the Sinorhizobium meliloti Transportome to Develop FRET Biosensors for Sugars, Dicarboxylates and Cyclic Polyols” (PLoS ONE, 2012).

System: SMb20036 FBS-RO version
Assay: FBS-RO version of SMb20036 biosensor, FRET ratio change on ligand
Type: binding, Sinorhizobium meliloti
Conditions: FBS-RO version (RFP/OFP) of SMb20036
Description: Ligand-induced FRET ratio changes of purified FRET biosensor were screened using a LS55 luminescence spectrometer (PerkinElmer Instruments). Excitation (ex.) was at (λ/slit width) 433/10 nm (CFP) or 549/10 nm (OFP). Emission (em.) was measured at 475/10 nm (CFP), 527/10 nm (YFP), 573/10 nm (OFP) and 644/10 nm (RFP). To confirm that Aphrodite and mKate2 were properly folded their fluorescence was individually tested by direct excitation at 510/6 nm and 588/10 nm respectively.
Affinity constants (Kd) of FRET biosensors with specific ligands were established using a monochromator microplate reader (Safire, Tecan, Switzerland; CFP ex.: (λ\bandwidth) 433/12 nm, em.: 475/12 nm; YFP em.: 527/12 nm. OFP ex.: 533/12 nm, em.: 563/12 nm; RFP em.: 615/12 nm). Proteins were diluted to give relative fluorescence units (RFU) in the detection range of 30,000 to 50,000 RFU at a gain of 90 to 100, and then were added to a dilution series (10^−3 to 10^−11 M) of ligand in Tris-HCl (pH 8.5, 50 mM). The change in relative emission intensities at 527/477 nm (YFP/CFP) or 615/563 nm (RFP/OFP) was used to determine Kd by fitting the titration curves to a single-site-binding isotherm: [drawing 1] with: R, ratio; Rapo, ratio without ligand; Rsat, ratio at saturation of ligand; n, number of equal binding sites; [L], ligand concentration. […]

- change in FRET ratio on binding ligand: no change in FRET ratio
Compound: O=C(O)C1=C[C@@H](O)[C@@H](O)[C@H](O)C1 [shikimic acid]
